# Data: the supplement of paper PMC10663445
# Counter-ions that a name gives are not always drawn. Some of the results follow. Single values are uncertain, as repeats are few or missing.
# Tested on: hsa-miR-132-3p
# Test: miR-132-3p level in NGN2-iNs after compound treatment (TMM-normalised, ComBat batch-corrected) (batch-corrected normalised expression (arbitrary units)); higher = higher miR-132-3p expression
# Settings: 10 µM; 24 h; human iPSC-derived NGN2 neurons (BR43)
row,SMILES,miR-132-3p level in NGN2-iNs
1,Cc1noc(-c2ccc(CSCCC(=O)O)cc2)c1NC(=O)OC(C)c1ccccc1Cl (stereo unspecified),0.103
2,COc1ccc(-c2cc(=O)c3c(OC)c(OC)c(OC)c(OC)c3o2)cc1OC,1
3,O=c1cc[nH]c(=O)[nH]1 [Uracil],0.0711
4,CCC[C@@H]1C[C@@H](C(=O)N[C@@H]([C@H]2O[C@H](SC)[C@H](O)[C@@H](O)[C@H]2O)[C@@H](C)O)N(C)C1 [Lincomycin HCl],-0.355
5,N#Cc1c(Oc2ccc(F)c(NC(=O)Cc3cccc(C(F)(F)F)c3)c2)ccc2nc(NC(=O)C3CC3)sc12,-0.319
6,Nc1nc(N)c2nc(-c3ccccc3)c(N)nc2n1 [Triamterene],0.577
7,C=C1CC[C@H](O)C/C1=C/C=C1\CCC[C@]2(C)[C@@H]([C@H](C)/C=C/[C@H](C)C(C)C)CC[C@@H]12 [Vitamin D2],-1.06
8,C=CC[N+]1([C@H]2C[C@H]3[C@@H]4CC[C@H]5C[C@H](O)[C@@H](N6CCOCC6)C[C@]5(C)[C@H]4CC[C@]3(C)[C@H]2OC(C)=O)CCCC1 [Rocuronium Bromide],-0.0964
9,Cc1ccc(C(=O)Cn2c3c(sc2=N)CCCC3)cc1 [Pifithrin-α (PFTα) HBr],1.28
10,CC(C)(C)NC(=O)[C@H]1CC[C@H]2[C@@H]3CC[C@H]4NC(=O)C=C[C@]4(C)[C@H]3CC[C@]12C [Finasteride],-0.175
11,O=[N+]([O-])c1cn2c(n1)OC[C@@H](OCc1ccc(OC(F)(F)F)cc1)C2,0.14
12,Cn1nnc2c(C(N)=O)ncn2c1=O [Temozolomide],0.583
13,CCCCOc1ccc(C(=O)CCN2CCCCC2)cc1 [Dyclonine HCl],-0.448
14,COc1ccc(CCC(=O)Nc2nc3ccc(Cl)cc3s2)cc1OC,-0.366
15,Cc1cc2c(C(=O)NCC(C)c3ccccc3)c(O)c(O)cc2c(O)c1-c1c(C)cc2c(C(=O)NCC(C)c3ccccc3)c(O)c(O)cc2c1O (stereo unspecified) [Sabutoclax],-2.59
16,O=C(c1ccccc1)c1ccc2nc(NC(=O)c3csc(C4CCN(c5ncnc6ccsc56)CC4)n3)[nH]c2c1,-0.407
17,Cn1c(N2CCCCS2(=O)=O)nc(C(=O)NCc2ccc(F)cc2)c(O)c1=O,-2.85
18,Cn1cnc(=N)c2[nH]cnc21 [3-Methyladenine (3-MA)],-0.263
19,C[N+](C)(C)CC(O)CC(=O)[O-] (racemic) [DL-Carnitine HCl],0.0865
20,CC(C)=CCCC(C)(OC1OC(COC2OCC(O)C(O)C2O)C(O)C(O)C1O)C1CCC2(C)C1C(O)CC1C3(C)CCC(OC4OC(CO)C(O)C(O)C4O)C(C)(C)C3CCC12C (stereo unspecified) [Gynostemma Extract],-0.704
21,NCCc1ccc(O)c(O)c1 [Dopamine HCl],-0.568
22,C[C@H](CS)C(=O)N1CCC[C@H]1C(=O)O [Captopril],-0.477
23,Cn1cnc2c(F)c(Nc3ccc(Br)cc3Cl)c(C(=O)NOCCO)cc21 [Selumetinib (AZD6244)],0.16

row,SMILES,miR-132-3p level in NGN2-iNs
1,Nc1nc(N)c2nc(-c3cccc(O)c3)c(-c3cccc(O)c3)nc2n1,-0.191
2,COc1ccc(CNc2nc(N3CCC[C@H]3CO)ncc2C(=O)NCc2ncccn2)cc1Cl [Avanafil],0.13
3,CN1CCN(C(=O)c2cc3cc(Cl)ccc3[nH]2)CC1,1.06
4,OC[C@@H](O)CN1CCN(c2ccccc2)CC1 [Levodropropizine],-0.217
5,Cc1c(Nc2ncccc2C(=O)O)cccc1C(F)(F)F [Flunixin Meglumin],0.692
6,CCCCCCNC(=O)n1cc(F)c(=O)[nH]c1=O [Carmofur],0.0735
7,Cc1nc(C(=O)NCC(=O)O)c(O)c2ccc(Oc3ccccc3)cc12 [Roxadustat (FG-4592)],-0.259
8,COc1cccc2c1C(=O)c1c(O)c3c(c(O)c1C2=O)C[C@@](O)(C(=O)CO)C[C@@H]3O[C@H]1C[C@H](N)[C@H](O[C@@H]2CCCCO2)[C@H](C)O1 [Pirarubicin],0.187
9,CC#C[C@]1(O)CC[C@H]2[C@@H]3CCC4=CC(=O)CCC4=C3[C@@H](c3ccc(N(C)C)cc3)C[C@@]21C [Mifepristone],-1.19
10,COC(=O)N[C@@H](C)CNc1nccc(-c2cn(C(C)C)nc2-c2cc(Cl)cc(NS(C)(=O)=O)c2F)n1 [Encorafenib (LGX818)],-0.493
11,CC[C@@H]1C(=O)N(C)c2cnc(Nc3ccc(C(=O)N[C@H]4CC[C@H](N5CCN(CC6CC6)CC5)CC4)cc3OC)nc2N1C(C)C [Volasertib (BI 6727)],-0.897
12,CCc1cccc(CC)c1NC(=O)N1Cc2[nH]nc(NC(=O)c3ccc(N4CCN(C)CC4)cc3)c2C1,0.699
13,Nc1nc(=O)n([C@@H]2CS[C@H](CO)O2)cc1F [Emtricitabine],0.409
14,COc1ccc(Cl)cc1C(=O)NCCc1ccc(S(=O)(=O)NC(=O)NC2CCCCC2)cc1 [Glyburide (Glibenclamide)],-1
15,C[C@@H]1C/C=C/C=C/C=C/C=C/[C@H](O[C@@H]2O[C@H](C)[C@@H](O)[C@H](N)[C@@H]2O)C[C@@H]2O[C@](O)(C[C@@H](O)C[C@H]3O[C@@H]3/C=C/C(=O)O1)C[C@H](O)[C@H]2C(=O)O [Natamycin],0.233
16,CC(C(O)c1ccc(O)cc1)N1CCC(Cc2ccccc2)CC1 (stereo unspecified) [Ifenprodil Tartrate],-0.579
17,CCn1c(=O)c2c(nc(/C=C/c3ccc(OC)c(OC)c3)n2C)n(CC)c1=O [Istradefylline],1.23
18,CC(C)(Oc1ccc(Cl)cc1)C(=O)OCCOC(=O)c1cccnc1 [Etofibrate],0.0675
19,Cc1cc(C)nc(NS(=O)(=O)c2ccc(N)cc2)n1 [Sulfamethazine],-0.106
20,CC1(C)O[C@@H]2C[C@H]3[C@@H]4C[C@H](F)C5=CC(=O)C=C[C@]5(C)[C@@]4(F)[C@@H](O)C[C@]3(C)[C@]2(C(=O)CO)O1 [Fluocinolone Acetonide],1.22
21,CC(C)[C@H](N)C(=O)OCCOCn1cnc2c(=O)nc(N)[nH]c21 [Valaciclovir HCl],0.29
22,CC(C)N(CC[C@H](c1ccccc1)c1cc(CO)ccc1O)C(C)C,1.47
23,CC(C)(C)c1cc(NC(=O)Nc2ccc(-c3cn4c(n3)sc3cc(OCCN5CCOCC5)ccc34)cc2)no1 [Quizartinib (AC220)],1.01

# Quoted at random: 4 compounds from above
row,SMILES,miR-132-3p level in NGN2-iNs
3,O=c1cc[nH]c(=O)[nH]1 [Uracil],0.0711
12,Cn1nnc2c(C(N)=O)ncn2c1=O [Temozolomide],0.583
13,CCCCOc1ccc(C(=O)CCN2CCCCC2)cc1 [Dyclonine HCl],-0.448
23,CC(C)(C)c1cc(NC(=O)Nc2ccc(-c3cn4c(n3)sc3cc(OCCN5CCOCC5)ccc34)cc2)no1 [Quizartinib (AC220)],1.01
